The results in this text go back to patent publication US20130251723A1.

These are yes or no findings as the source states them, for the method shown. A result given as binding can be weak or reduced; the word gives no strength.

For assay [1], the target named is Tyrosine-protein kinase transmembrane receptor ROR1 (human, cell surface) (human). In words: flow cytometry on A549 cells (figure legend).
Assay [2] shares this target. Kind of assay: flow cytometry on A549 cells.
Assay [3] has the same target. In words: flow cytometry on CALU1, H358, PANC-1, H226, H69 and HT-29 cells.
For assay [4] the target is unchanged. In words: flow cytometry on cancer cell lines (figure legend).
The target is the same in assay [5]. Kind of assay: immunohistochemistry at 20 ug/ml on FFPE or frozen tumour tissue sections.
Assay [6] shares this target. Kind of assay: flow cytometry on A549 and HT-29 cells (figure legend).
Assay [7] has the same target. In words: flow cytometry on A549 and HT-29 cells.

B1: ROR1_A10 monoclonal antibody (antibody, V domains shown)
VH: EVQLVETGGGLVKPGGSLKLSCAASGFAFSSYAMSWVRQTPEKRLEWVAAINNRGGGTYYPDTVRGRFTISRDNAKNTLYLQMSSLRSADTALYYCVRHDNLNYDYAMDSWGQGTSVTVSS
VL: NIVMTQSPSSMYASLGERVTITCKASQDIYSYLSWFQQKPGKSPKTLIYRANRLVDGVPSRFSGSGSGQDYSLTISSLDYEDVGIYYCLQYDEFPYTFGSGTKLEIER
B1: the binding entry in assay [1] and in assay [2] was “binds” in each case.

B2: ROR1_A8 monoclonal antibody (antibody, V domains shown)
VH: DVQVVESGGGLVKPGGSLKLSCAASGFTFSSYAMSWVRQTPEKRLEWVAAINPNGGSTYYPDTVKGRFTISRDNAKNTLYLQMSGLRSEDTALYYCARLPWSPYTLDYWGQGTSVTVSS
VL: NIVMTQSPVSLSMAIGEKVTIRCITNTDIDDAMNWYQQKPGEPPKLLISEGNTLRPGVPSRFSSSGYGTDFVFTIENMLSEDVADYYCLQTDNLPLTFGSGTKLAIKR
For the molecule B2, the binding entry in assay [1], in assay [3], in assay [2] and in assay [4] was “binds” in each case.

B3: ROR1_A1 monoclonal antibody (antibody, V domains shown)
VH: EVKLVESGGGLVRPGGSLKLSCAVSGFTFSSYAMSWVRQTPEKRLEWVAAINFNRGTTYYSDTVKGRFTISRDNAKNTLYLQLSSLRSEDTAFYYCSRHRYSDYDYAMDYWGQGTSVTVSS
VL: DIVMSQSPSSMYASLGERVTITCKASQDINSYLNWFQQKPGKSPKTLIYRANRLVDGVPSRFSGSGSGHDYFLTIRSLEYEDMGIYYCLQYDEFPYTFGGGTKLEIKR
On to B3, for which the binding entry in assay [1], in assay [3], in assay [5], in assay [2] and in assay [4] was “binds” throughout.

B4: ROR1_A7 monoclonal antibody (antibody, V domains shown)
VH: EVMLVESGGGLVKPGGSLKISCAASGFSFSSYAMSWVRQTPEKSLEWVAAININRGTPYYPDTVKGRFTISRDNAKNTLYLQMSSLRSEDTALYYCVRHRNSNNDYAMDYWGQGTSVTVSS
VL: DIVMTQSPSSMYTSLGERVTITCKASQDINSYLSWFQQKPGKSPKTLIYRANRLIDGVPSRFSGSGSGQDYSLTISSLEYEDMGIYYCLQYDEFPFTFGSGTKLEIKR
For B4, the binding entry in assay [1] and in assay [2] was “binds” in each case.

B5: ROR1_A4 monoclonal antibody (antibody, V domains shown)
VH: EVKLVESGGGLVKPGGSLKLSCAASGFTFSNYGMSWVRQTPERRLEWVAAMNNNGASTYYPDTVKGRFTISRDNAKNTLYLQMSSLRSEDTALYFCVRHNNYVDYAMDYWGQGTSVTVSS
VL: DILLTQSPSSMYTSLGERVTITCKASQDINSYLSWFQQKPGKSPKTLIYRANKLVDGVPSRFSGSGSGQDYSLTISSLESEDMGIYYCLQYDEFPYTFGGGTKLEIKR
Take B5: the binding entry in assay [1] and in assay [2] was “binds” throughout.

B6: ROR1_A9 monoclonal antibody (antibody, V domains shown)
VH: EVQLVETGGDLVKPGGSLKLSCVASGFTFSSNAMSWVRQTPEKRLEWVAAINSKGGGTYYPDTVRGRFTISRDNAKNTLYLQVTSLRSEDTALYYCVSHGDNKYFYAMDYWGQGTSVTVSS
VL: NIVMTQSPSSMYASLGERVTITCKASQDINSYLSWFQQKPGKSPKTLIYRANRLVDGVPSRFSGSGSGQDYSLTISSLEYEDMGIYYCLQYDEFPYTFGGGTKLEIKR
As for B6, the binding entry in assay [1] and in assay [2] was “binds” each time.

B7: ROR1_A5 monoclonal antibody (antibody, V domains shown)
VH: EVKLVESGGGLVKPGGSLKLSCAASGFTFSNYDMSWVRQSPEKRLEWVAAINRKGHSTYYPDTVQGRFTISRDNAKNTLYLQMSSLRSEDTALYYCVRLDDNYYFFDYWGQGTTLTVSS
VL: DIKMTQSPSSMYASLGERVTITCKASQDINSYLSWFQQKPGKSPKTLIYRAKRLIDGVPSRFSGSGSGQDYSLTISSLEYEDMGIYYCLQYDEFPYTFGGGTKLEIKR
Regarding B7, the binding entry in assay [1] and in assay [2] was “binds” in each case.

B8: ROR1_A2 monoclonal antibody (antibody, V domains shown)
VH: EVQLLETGGGLVKPGGSLKLSCAASGFTFSTYAMSWVRQTPEKRLEWVAGINSNRGTTYYPDTVKGRFTISRDNAKNTLSLQMTSLRSEDTALYYCVRHRYTNYDYAMDYWGQGTSVTVSS
VL: DIKMTQSPSSMYASLGERVTITCKASQDINSYLSWFQQKPGKSPKTLIYRANRLVDGVPSRFSGSGSGQDYSLTISSLEYEDMGIYYCLQYDEFPYTFGGGTKLEIKR
As for B8, the binding result in assay [1] and in assay [2] was “binds” throughout.

B9: ROR1_A3 monoclonal antibody (antibody, V domains shown)
VH: DVMLVESGGGLVKPGGSLKLSCAASGFTFSSYAMSWVRQTPEKRLEWVAAININRGTTYYSDTVKGRFTISRDNAKNTLYLQLSSLRSEDTALYYCSRHRYSDYDYAMDYWGQGTSVTVSS
VL: DIQLTQSPSSMYASLGERVTIACKASQDINSYLSWFQQKPGKSPKTLIHRANRLVDGVPSRFSGSGSGQDYSLTISSLEYEDIGIYYCLQYDEFPYTFGGGTKLEIKR
As to B9, the binding entry in assay [1], in assay [3], in assay [2] and in assay [4] was “binds” each time.

B10: ROR1_A12 monoclonal antibody (antibody, V domains shown)
VH: EVQLVESGGGLVKPGGSLKLSCAASGFTFSSYAMSWVRQTPEKRLEWVAAINSNRGTTYYSDTVKGRFTISRDNAKNTLYLQMSSLRSEDTAFYYCTRHRYSDYDYAMDYWGQGTSVTVSS
VL: DIKMTQSPSSMYASLGERVTITCKASQDINSYLSWFQQKPGKSPMTLTHRANRLVDGVPSRFSGSGSGQDYSLTISSLENEDMGIYYCLQYDEFPYTFGGGTKLEIKR
Consider B10, for which the binding entry in assay [1] and in assay [2] was “binds” each time.

B11: ROR1_A6 monoclonal antibody (antibody, V domains shown)
VH: EVMLVESGGGLVKPGGSLKLSCAASGFTFSPYAMSWVRQTPEKRLEWVAAINSNRGTTYYPDTVKGRFTISRDNAKNTLYLQMSSLRSEDTAFYYCVRHRYNNYDYAMDYWGQGTSVTVSS
VL: DIVMSQSPSSMYASLGERVTITCKASQDINSYLSWFQQKPGKSPKTLTYRANRLVEGVPSRFSGSGSGQDYSLTISSLEYEDMGIYYCLQYDEFPYTFGGGTKLEIKR
For the molecule B11, the binding entry in assay [1] and in assay [2] was “binds” in each case.

B12: humanized ROR1_A1 antibody (antibody, V domains shown)
VH: VQLVESGGGLVQPGGSLRLSCAASGFTFSSYAMSWVRQAPGKGLEWVAAINFNRGTTYYSDTVKGRFTISRDNAKNSLYLQMNSLRAEDTAVYYCSRHRYSDYDYAMDYWGQGTMVTVSS
VL: QMTQSPSSLSASVGDRVTITCKASQDINSYLNWFQQKPGKAPKSLIYRANRLVDGVPSKFSGSGSGHDYTLTISSLQPEDFATYYCLQYDEFPYTFGQGTKL
On to B12, for which the binding entry in assay [6] and in assay [7] was “binds” each time.
